Source: patent US5959178A, “Modification of lignin synthesis in plants” (Imperial Chemical Industries PLC, priority 1991, dated 1999)
At least one structure is not confirmed: it was looked up by name or label, or the drawing left a doubt.

Chains of the proteins cited; added tags and fusions are not shown.
UniProt Q9LWB8, entry or part of it T91I: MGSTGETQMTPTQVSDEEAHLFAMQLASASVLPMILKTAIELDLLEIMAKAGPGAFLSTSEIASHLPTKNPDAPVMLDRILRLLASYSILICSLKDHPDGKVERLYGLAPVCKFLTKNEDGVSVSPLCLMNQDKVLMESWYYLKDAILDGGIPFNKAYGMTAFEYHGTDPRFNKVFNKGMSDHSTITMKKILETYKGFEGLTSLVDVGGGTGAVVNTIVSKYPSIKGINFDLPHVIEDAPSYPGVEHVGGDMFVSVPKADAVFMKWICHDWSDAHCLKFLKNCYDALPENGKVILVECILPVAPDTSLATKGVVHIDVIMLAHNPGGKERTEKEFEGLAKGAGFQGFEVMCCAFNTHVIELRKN

Biological target: T1, purified poplar OMT (Populus trichocarpa x Populus deltoides, UniProt Q9LWB8)
T1 construct: closely related isoforms co-purify
Assay: Specific activity of the purified poplar OMT towards O-diphenolic substrates
Assay type: biochemical
Method: The specific activity of the purified OMT towards three different O-diphenolic substrates was measured. Using catechol, caffeic acid, and hydroxyferulic acid as substrate, we found an OMT activity of 0, 30, and 15 nkat/mg protein, respectively.

Compound: COc1cc(C=CC(=O)O)cc(O)c1O [hydroxyferulic acid]
- OMT activity (specific activity) with compound as substrate: 15 nkat/mg protein
